In patent US9073835B2, “N-acylthiourea and N-acylurea inhibitors of the Hedgehog protein signalling pathway” (Centre National De La Recherche Scientifique, priority 2008, dated 2015):
Some entries share one result that the patent states for a list of compounds.

The compounds below were run on Hedgehog protein signaling pathway (assay: Inhibition of SAG-induced alkaline phosphatase activity (differentiation) in C3H10T1/2 cells). Settings: after activation with SAG, method of Chen et al.; list of particularly preferred compounds.
Format: cell-based
Protocol: The effect of compounds with formula (I) as claimed in the invention on inhibition of the Hedgehog protein signaling pathway was determined by analysis of differentiation in the pluripotent fibroblast cell line C3H10T1/2 after activation of this pathway in these cells using a synthetic activator: SAG.
The compounds with formula (I) to be tested were dissolved in dimethylsulfoxide to a concentration of 10 mM, then stored at a temperature of −20° C. until use.
The pluripotent fibroblast cell line C3H10T1/2 (ATCC) was cultivated under the conditions recommended by the ATCC. These cells were activated using 0.1 μM of SAG, employing the methods described by Chen et al., Proc. Natl. Acad. Sci. USA, 2002, 99, 14071 and Frank-Kamenetsky et al., J. Biol., 2002, 1, 10.
Activation with SAG provokes differentiation of the cell line and allows them to express alkaline phosphatase. It is then possible to measure the activity of the Hedgehog protein signaling pathway by measuring the alkaline phosphatase activity.
The C3H10T1/2 cells were plated onto 96-well plates at a density of […], 24 hours before addition of the test compounds in a concentration of 1 nM to 30 μM and in the presence of 0.1 μM of SAG using DMEM supplemented with 10% fetal calf serum as the culture medium. The tests were carried out in quadruplicate. The plates were then incubated for 5-6 days at a temperature of 37° C. in an atmosphere of 5% CO2. The cells were washed in a cold phosphate buffer (“Phosphate Buffer Serum”: PBS) then lysed by sonication at 4° C. in 50 μl of a solution containing 0.9% of NaCl and 0.2% of Triton X-100.
By way of comparison, the activity of a known inhibitor of the Hedgehog protein signaling pathway, CURIS 61 414, as described, for example, by Frank-Kamenetsky M. et al. (J. Biol., 2002, 1, 10), was tested under the same conditions as those used to test the various compounds with formula (I) as claimed in the invention.
The alkaline phosphatase activity measurement in the lysates obtained was then carried out using the method described by Pepinsky et al. (J. Biol. Chem., 1998, 273, 14037). After adding 100 μl of reaction buffer (200 mM Tris-HCl; pH 10.5; 0.4 M of 2-amino-2-methylpropanol and 8 mM of MgCl2) and 50 μl of substrate (4 mM of disodium p-nitrophenyl phosphate), the lysates were incubated at 37° C. for 30-60 min, then the optical density was read at a wavelength of 415 nm.

Row | Compound | inhibition of the activity of the Hedgehog protein signaling pathway [%]
1 | COc1cc(OC)cc(C(=O)NC(=S)Nc2cccc(NC(=O)c3ccccc3)c2)c1 [Compound 18, N-[[[3-(benzoylamino)phenyl]amino]thioxomethyl]-3,5-methoxy-benzamide] | ≥ 80
2 | COc1cc(C(=O)NC(=O)Nc2cccc(NC(=O)c3ccc(-c4ccccc4)cc3)c2C)cc(OC)c1OC [Compound 45] | ≥ 80
3 | COc1cc(C(=O)NC(=S)Nc2ccc(Cl)c(C(=O)Nc3ccccc3)c2)cc(OC)c1OC [Compound 25, N-[[[4-chloro-3-(phenylamino)carbonyl]amino]thioxomethyl]-3,4,5-methoxy-benzamide] | ≥ 80
4 | N-[[[3-(benzoylamino)phenyl]amino]thioxomethyl]-3,4,5-methoxy-benzamide [Compound 38] | ≥ 80
5 | COc1cc(C(=O)NC(=S)Nc2cccc(NC(=O)c3ccncc3)c2)cc(OC)c1OC [Compound 11, N-[[[3-(4-pyridocarboxylamino)phenyl]amino]thioxomethyl]-3,4,5-methoxy-benzamide] | ≥ 80
6 | COc1cc(C(=O)NC(=O)Nc2cccc(NC(=O)c3ccccc3)c2)cc(OC)c1OC [Compound 31, N-[[[3-(benzoylamino)phenyl]amino]oxomethyl]-3,4,5-methoxy-benzamide] | ≥ 80
7 | COc1cc(C(=O)NC(=S)Nc2cccc(NC(=O)c3ccccc3Cl)c2)cc(OC)c1OC [Compound 2, N-[[[3-(2-chloro-benzoylamino)phenyl]amino]thioxomethyl]-3,4,5-methoxy-benzamide] | ≥ 80
8 | COc1cc(C(=O)NC(=S)Nc2ccc(F)c(NC(=O)c3ccccc3)c2)cc(OC)c1OC [Compound 24, N-[[[4-fluoro-3-(benzoylamino)phenyl]amino]thioxomethyl]-3,4,5-methoxy-benzamide] | ≥ 80
9 | CCOc1cc(C(=O)NC(=S)Nc2cccc(NC(=O)c3ccccc3)c2)cc(OCC)c1OCC [Compound 23, N-[[[3-(benzoylamino)phenyl]amino]thioxomethyl]-3,4,5-ethoxy-benzamide] | ≥ 80
10 | CCOc1cc(C(=O)NC(=S)Nc2cccc(NC(=O)c3ccccc3)c2)cc(OC)c1OCC [Compound 20, N-[[[3-(benzoylamino)phenyl]amino]thioxomethyl]-3,4-ethoxy-5-methoxy-benzamide] | ≥ 80
11 | COc1cc(C(=O)NC(=O)Nc2cccc(NC(=O)c3ccc(Cl)cc3)c2)cc(OC)c1OC [Compound 47, N-[[[-3-(4-chloro-benzoylamino)phenyl]amino]oxomethyl]-3,4,5-methoxy-benzamide] | ≥ 80
12 | COc1cc(C(=O)NC(=S)Nc2cccc(NC(=O)c3ccccc3)c2)cc2c1OCO2 [Compound 21, N-[[[3-(benzoylamino)phenyl]amino]thioxomethyl]-3,4-methylenedioxy-5-methoxy-benzamide] | ≥ 80
13 | COc1ccc(C(=O)Nc2cccc(NC(=S)NC(=O)c3cc(OC)c(OC)c(OC)c3)c2)cc1 [Compound 1, N-[[[3-(4-methoxy-benzoylamino)phenyl]amino]thioxomethyl]-3,4,5-methoxy-benzamide] | ≥ 80
14 | COc1cccc(C(=O)Nc2cccc(NC(=S)NC(=O)c3cc(OC)c(OC)c(OC)c3)c2)c1 [Compound 3, N-[[[3-(3-methoxy-benzoylamino)phenyl]amino]thioxomethyl]-3,4,5-methoxy-benzamide] | ≥ 80
15 | COc1ccccc1C(=O)Nc1cccc(NC(=S)NC(=O)c2cc(OC)c(OC)c(OC)c2)c1 [Compound 4, N-[[[3-(2-methoxy-benzoylamino)phenyl]amino]thioxomethyl]-3,4,5-methoxy-benzamide] | ≥ 80
16 | COc1cc(C(=O)NC(=S)Nc2ccc(Cl)c(NC(=O)c3ccccc3)c2)cc(OC)c1OC [Compound 34, N-[[[4-chloro-3-(benzoylamino)phenyl]amino]thioxomethyl]-3,4,5-methoxy-benzamide] | ≥ 80
17 | COc1cc(C(=O)NC(=S)Nc2ccc(Cl)c(C(=O)Nc3ccc(N(C)C)cc3)c2)cc(OC)c1OC [Compound 39] | ≥ 80
18 | COc1cc(C(=O)NC(=S)Nc2cccc(NC(=O)c3ccc(Cl)cc3)c2)cc(OC)c1OC [Compound 13, N-[[[3-(4-chloro-benzoylamino)phenyl]amino]thioxomethyl]-3,4,5-methoxy-benzamide] | ≥ 80
19 | CCOc1c(OC)cc(C(=O)NC(=S)Nc2cccc(NC(=O)c3ccccc3)c2)cc1OC [Compound 19, N-[[[3-(benzoylamino)phenyl]amino]thioxomethyl]-3,5-methoxy-4-ethoxy-benzamide] | ≥ 80
20 | COc1cc(C(=O)NC(=O)Nc2cccc(NC(=O)C(C)C)c2)cc(OC)c1OC [Compound 17] | ≥ 80
21 | COc1cc(C(=O)NC(=S)Nc2ccc(Cl)c(C(=O)Nc3ccc(Cl)cc3)c2)cc(OC)c1OC [Compound 43] | ≥ 80
